Taken from: PubChem BioAssay AID504774 (Drosophila RNAi Screening Center, 2011)

Aim: 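Knock-downs that shift viability of MMS-exposed cells relative to untreated ones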 (primary screen)
System: Drosophila Kc167 cells
Reagents: long dsRNA against Drosophila genes, about 0.25 µg dsRNA per well
Time to read-out: about 6 days: 3 days knock-down, then 3 days with or without MMS
Treatment: methyl methanesulphonate 0.004% (w/v) for 3 days after knock-down
Read-out: 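Viability in wells given MMS, read as ATP luminescence, normalised by quantiles plate by plate and averaged across replicates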
Direction: mean viability with MMS and viability with MMS: higher = more surviving cells after MMS
The deposit covers about 23,000 reagents; this is a random part of those that have a named target and a result. 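Values are quantile-normalised luminescence on an arbitrary scale; higher means more cells surviving MMS.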 The numbers tell different reagents against one gene apart. Names joined by + are all predicted targets of the reagent.

no.	Target gene	reagent no.	mean viability with MMS	viability with MMS, replicate 1	viability with MMS, replicate 2
1	CG4743	1	3.65e6	4.10e6	4.18e6
2	enok (enoki mushroom)	1	3.15e6	3.51e6	2.85e6
3	Mi-2 + Su(Tpl)	1	3.54e6	4.11e6	3.93e6
4	CG5339	1	3.55e6	4.15e6	3.90e6
5	CG13870	1	3.33e6	3.67e6	3.83e6
6	CG1486	1	3.67e6	4.14e6	4.23e6
7	CG9143	1	3.43e6	3.90e6	3.89e6
8	CG30122	1	3.52e6	3.97e6	4.01e6
9	CG30122	2	3.69e6	4.13e6	4.20e6
10	dind (diamond)	1	3.44e6	3.86e6	3.95e6

Entries listed so far whose gene name starts with C or c:
Target gene	reagent no.	mean viability with MMS	viability with MMS, replicate 1	viability with MMS, replicate 2
CG4743	1	3.65e6	4.10e6	4.18e6
CG5339	1	3.55e6	4.15e6	3.90e6
CG13870	1	3.33e6	3.67e6	3.83e6
CG1486	1	3.67e6	4.14e6	4.23e6
CG9143	1	3.43e6	3.90e6	3.89e6
CG30122	1	3.52e6	3.97e6	4.01e6
CG30122	2	3.69e6	4.13e6	4.20e6

The results go on.
no.	Target gene	reagent no.	mean viability with MMS	viability with MMS, replicate 1	viability with MMS, replicate 2
11	CSN4 (COP9 signalosome subunit 4)	1	3.38e6	3.87e6	3.80e6
12	CIA30 (Complex I intermediate-associated protein, 30 kDa)	1	3.59e6	4.03e6	4.10e6
13	SPoCk (Secretory Pathway Calcium atpase)	1	3.53e6	3.93e6	4.05e6
14	SPoCk (Secretory Pathway Calcium atpase)	2	3.33e6	3.75e6	3.75e6
15	SPoCk (Secretory Pathway Calcium atpase)	3	3.54e6	3.99e6	4.03e6
16	SPoCk (Secretory Pathway Calcium atpase)	4	3.48e6	3.97e6	3.90e6
17	Pvf1 (PDGF- and VEGF-related factor 1)	1	3.68e6	4.20e6	4.19e6
18	Top3beta (Topoisomerase 3beta)	1	3.28e6	3.91e6	4.08e6
19	CG12951	1	3.51e6	4.01e6	3.97e6
20	Hsp60A (Heat shock protein 60A)	1	3.77e6	4.11e6	4.58e6
21	CG15765	1	3.37e6	3.54e6	3.88e6
22	CG15765	2	3.67e6	4.08e6	4.24e6
23	CG8668	1	3.57e6	4.10e6	3.99e6
24	ND-PDSW (NADH dehydrogenase (ubiquinone) PDSW subunit)	1	3.60e6	4.16e6	4.02e6
25	fd59A (forkhead domain 59A)	1	3.51e6	3.98e6	4.13e6
26	spaw (spacewatch)	1	3.49e6	3.96e6	3.98e6
27	nompC (no mechanoreceptor potential C)	1	3.46e6	4.06e6	3.79e6
28	CG16717	1	3.70e6	4.18e6	4.14e6
